# Test: Optical imaging, in vivo and ex vivo
# Design: species or system Balb/C nude mice
# Settings: 2 mg/kg i.v.
compound,measurement,setting,value
"CN(C)c1ccc(/C=C/C2=[O+][B-](F)(F)OC(/C=C/c3ccc(OCCOCCF)cc3)=C2)cc1 [Ligand 2, BF2 complex of 4′-dimethylamino-4″-(2-(2-fluoroethoxy)ethoxy)curcuminoid]","ex vivo fluorescence signals in muscle, kidney, intestines and liver",2 min after injection,moderate to strong fluorescence signals
same,"change of ex vivo fluorescence signals in muscle, kidney, intestines and liver",within 30 min,decreased to the background level
same,fluorescence signal in mouse brain,"in vivo, 2 min after injection, ex 570 nm / em 660 nm",Moderate fluorescence signal intensity
same,change of fluorescence signal in mouse brain,"in vivo, within 30 min",significantly decreased

# Source: publication PMC6494845 (Scientific Reports, 2019)
